No constants are given. Whether binding was seen depends on the method and setting. In cells and extracts the contact can be indirect. For some assays here: Binding calls can cover weak binding; strength is not graded here.

Chains of the proteins cited; added tags and fusions are not shown. Lines headed by an entry give the natural chain unless they say otherwise; changes in a name come on top. A line that says so, or that is headed by a name, gives the form on record, which may keep a tag or linker. Residues count along the entry.
UniProt P28340: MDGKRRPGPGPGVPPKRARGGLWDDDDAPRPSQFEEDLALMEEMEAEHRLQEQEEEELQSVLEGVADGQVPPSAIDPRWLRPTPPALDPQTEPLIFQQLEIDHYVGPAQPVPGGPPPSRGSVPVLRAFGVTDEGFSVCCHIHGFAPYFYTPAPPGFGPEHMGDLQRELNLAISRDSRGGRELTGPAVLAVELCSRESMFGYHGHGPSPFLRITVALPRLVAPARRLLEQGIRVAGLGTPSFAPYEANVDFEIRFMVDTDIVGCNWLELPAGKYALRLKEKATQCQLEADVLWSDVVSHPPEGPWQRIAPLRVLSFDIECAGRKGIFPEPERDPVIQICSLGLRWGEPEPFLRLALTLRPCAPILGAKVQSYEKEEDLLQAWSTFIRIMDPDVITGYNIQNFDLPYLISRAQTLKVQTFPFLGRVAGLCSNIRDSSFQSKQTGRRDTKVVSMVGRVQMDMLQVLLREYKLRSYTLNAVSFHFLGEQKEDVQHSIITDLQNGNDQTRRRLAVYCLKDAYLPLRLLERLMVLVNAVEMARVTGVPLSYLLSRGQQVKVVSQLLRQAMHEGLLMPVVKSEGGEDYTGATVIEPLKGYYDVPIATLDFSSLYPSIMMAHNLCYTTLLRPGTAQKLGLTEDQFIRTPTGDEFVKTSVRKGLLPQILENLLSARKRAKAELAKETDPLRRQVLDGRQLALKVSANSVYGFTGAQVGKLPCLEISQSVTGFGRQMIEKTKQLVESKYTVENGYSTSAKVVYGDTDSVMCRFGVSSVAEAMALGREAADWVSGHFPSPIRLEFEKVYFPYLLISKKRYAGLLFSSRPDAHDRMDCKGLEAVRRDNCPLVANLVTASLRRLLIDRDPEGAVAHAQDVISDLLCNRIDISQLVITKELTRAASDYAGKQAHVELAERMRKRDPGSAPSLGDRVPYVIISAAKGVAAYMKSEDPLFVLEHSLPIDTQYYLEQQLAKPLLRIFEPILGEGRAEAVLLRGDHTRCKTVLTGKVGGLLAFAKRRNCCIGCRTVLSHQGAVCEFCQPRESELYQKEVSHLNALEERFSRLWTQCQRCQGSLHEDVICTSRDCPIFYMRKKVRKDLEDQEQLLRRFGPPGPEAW
FLAG-tagged PolD1 fragment 1–316: residues 1-316 of P28340
FLAG-tagged PolD1 fragment 247–955: residues 247-955 of P28340
FLAG-PolD1 S605del, ectopically expressed (P28340, form named): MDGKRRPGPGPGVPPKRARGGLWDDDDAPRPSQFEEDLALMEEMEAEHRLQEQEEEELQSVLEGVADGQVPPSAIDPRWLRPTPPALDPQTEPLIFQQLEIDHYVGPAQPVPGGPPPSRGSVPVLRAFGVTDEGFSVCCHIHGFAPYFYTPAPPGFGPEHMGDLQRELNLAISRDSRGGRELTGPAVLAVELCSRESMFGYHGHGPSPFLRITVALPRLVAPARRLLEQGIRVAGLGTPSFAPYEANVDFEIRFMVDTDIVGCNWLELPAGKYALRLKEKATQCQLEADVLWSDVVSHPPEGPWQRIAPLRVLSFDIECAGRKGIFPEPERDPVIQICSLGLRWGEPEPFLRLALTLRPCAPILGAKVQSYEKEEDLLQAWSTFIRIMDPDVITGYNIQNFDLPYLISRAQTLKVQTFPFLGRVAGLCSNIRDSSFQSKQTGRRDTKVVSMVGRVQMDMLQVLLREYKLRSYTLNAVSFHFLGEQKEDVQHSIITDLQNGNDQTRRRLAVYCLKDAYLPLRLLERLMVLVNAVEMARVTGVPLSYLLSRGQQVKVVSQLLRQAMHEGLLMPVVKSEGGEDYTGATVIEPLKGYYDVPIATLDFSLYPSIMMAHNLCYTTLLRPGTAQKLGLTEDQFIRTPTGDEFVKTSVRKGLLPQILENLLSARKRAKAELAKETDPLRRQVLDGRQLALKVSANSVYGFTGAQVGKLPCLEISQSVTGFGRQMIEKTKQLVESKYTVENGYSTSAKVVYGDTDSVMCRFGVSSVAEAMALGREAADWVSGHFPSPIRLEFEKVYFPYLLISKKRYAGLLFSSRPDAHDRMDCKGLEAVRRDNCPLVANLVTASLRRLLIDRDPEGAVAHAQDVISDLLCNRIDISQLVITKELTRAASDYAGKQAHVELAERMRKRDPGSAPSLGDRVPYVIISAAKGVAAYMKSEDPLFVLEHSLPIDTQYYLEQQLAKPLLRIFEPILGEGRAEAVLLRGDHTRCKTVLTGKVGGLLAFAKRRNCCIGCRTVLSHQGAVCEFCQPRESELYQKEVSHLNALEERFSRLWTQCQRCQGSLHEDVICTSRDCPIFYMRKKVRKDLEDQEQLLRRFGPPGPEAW
UniProt P23258: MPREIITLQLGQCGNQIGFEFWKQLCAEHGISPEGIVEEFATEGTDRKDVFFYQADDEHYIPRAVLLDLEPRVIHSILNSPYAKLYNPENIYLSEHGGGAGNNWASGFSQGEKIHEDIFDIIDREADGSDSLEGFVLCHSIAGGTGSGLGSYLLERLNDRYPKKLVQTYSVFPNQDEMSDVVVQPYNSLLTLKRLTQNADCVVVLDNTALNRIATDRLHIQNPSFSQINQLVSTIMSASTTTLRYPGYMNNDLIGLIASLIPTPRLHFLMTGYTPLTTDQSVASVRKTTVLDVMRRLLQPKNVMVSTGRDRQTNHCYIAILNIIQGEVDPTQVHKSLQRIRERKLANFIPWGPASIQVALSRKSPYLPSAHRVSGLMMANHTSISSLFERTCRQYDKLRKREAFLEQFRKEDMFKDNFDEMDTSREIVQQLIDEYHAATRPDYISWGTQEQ

What all share (assay): co-IP; FLAG-tagged PolD1, its mutants or fragments expressed in HEK293T cells; anti-FLAG M2 beads in extracts (0.5% IGEPAL CA-630), 4 °C, 2 h; cells with control or GCP4-specific siRNA in Fig. 1c; immunoblot of endogenous partners
Assay [1] concerns the target FLAG-PolD1 D515V, ectopically expressed (human) (UniProt P28340).
Assay [2] has as its target FLAG-PolD1 (wild type), ectopically expressed (human) (UniProt P28340).
Assay [3] addresses FLAG-PolD1 S605del, ectopically expressed (human) (UniProt P28340).
Assay [4] deals with FLAG-tagged PolD1 fragment 247–955 (human) (UniProt P28340).
Assay [5] deals with FLAG-tagged PolD1 fragment 1–316 (human) (UniProt P28340).

For “γ-tubulin, endogenous (from UniProt P23258)”, the binding result was “binds” in assay [1]; “binds” in assay [2]; “binds” in assay [3]; “binds” in assay [4]; “no binding” in assay [5].

Source of the values: PMC5601897, “The catalytic subunit of DNA polymerase δ inhibits γTuRC activity and regulates Golgi-derived microtubules” (Nature Communications, 2017).
